# Measurements from paper PMC4974476, “Structural basis for LIN54 recognition of CHR elements in cell cycle-regulated promoters”.
# A weaker result is weaker than the reference pair of the same experiment. Protein sequences can lack the tags named with them.
# Molecular target: T1, LIN54 DBD-N (Homo sapiens) (UniProt Q6MZP7)
# T1 sequence (looked up): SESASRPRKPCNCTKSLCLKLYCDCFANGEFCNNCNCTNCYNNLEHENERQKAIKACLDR
# Assay: NMR HSQC titration
# Conditions: 35 mM MES, 75 mM NaCl, pH 6.0, 25 C, NMR: 35 mM MES, 5% D2O, recombinant protein, residues 515-574, protein details: N-terminal GST with TEV site, cleaved
sequence,measurement,value
GAGTTTGAAACTG (double strand) [CHR13],binding result,binds more weakly
